Reference: PubChem BioAssay AID1347075 (National Center for Advancing Translational Sciences (NCATS), 2019)
Hit rate of the full screen: of about 400,000 compounds, about 5,500 (1.4%) were called active. Inconclusive results, whose numbers are uncertain, are shown with a selection of clear calls. Calls come from the whole dose curve; as a rule, active = well fitted cell-killing curve with a large enough effect; inconclusive = small, poorly fitted or top-dose-only effect, or effect the other way; inactive = flat fitted curve, though single readings scatter. A potency beside an inconclusive call is a rough fit, not a confirmed value.

Test: qHTS assay for MDR1-selective chemotherapeutics: Primary screen using the parental adenocarcinoma cell KB-3-1; note: nearly all actives have a fitted effect of over 60% in size
Conditions: KB-3-1 viability, CellTiter-Glo ATP luminescence, 72 h; series mostly up to 46.1 µM
Summary of the method: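 Multi-concentration cytotoxicity screen in KB-3-1 cells grown in DMEM lacking phenol red with 10% FBS. After 72 h at 37 °C with compound, ATP-dependent luminescence was recorded.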
Potency is the fitted concentration of half-maximal effect.

Compound	Potency
CCc1noc(C)c1C(=O)N1CCSC1=Nc1cccc(Cl)c1C	inconclusive: 11.6 µM [cytotoxic, partial curve, poor fit]
Cc1ccc(C(=O)NCCSc2c(C)[nH]c3ccccc23)cc1[N+](=O)[O-]	inconclusive: 29.1 µM [cytotoxic, single point]
O=C(c1ccccc1)c1nn(-c2ccc(Cl)cc2)c(=O)cc1C(F)(F)F	inconclusive: 23.1 µM [cytotoxic, single point]
CCN1CCN(c2ccc([N+](=O)[O-])cc2C(=O)c2ccc(Cl)cc2)CC1	inconclusive: 18.4 µM [cytotoxic, single point]
O=C1OC(C(=O)Nc2cc(C(F)(F)F)ccc2Cl)Cc2ccccc21 (stereo not drawn)	inactive
O=C(NNC(=S)Nc1ccc(Cl)cc1)c1ccccc1OC(F)F	active: 18.4 µM
Cc1ccc(C)c(N2CCN(C(=O)c3cnn(-c4ccccc4Cl)c3C3CCN(C(=O)OC(C)(C)C)CC3)CC2)c1	inconclusive: 23.1 µM [cytotoxic, single point]
Cc1ccccc1/C=N/NC(=O)c1cccnc1	inconclusive: 32.6 µM [rising, single point]
O=C(CCc1nc2ccccc2c(=O)[nH]1)N1CCN(S(=O)(=O)c2ccccc2Br)CC1	inconclusive: 16.4 µM [cytotoxic, single point]
CCn1c(CNC(=O)c2cccs2)nnc1SCC(=O)NCCc1ccccc1	inactive
O=C(Nc1ncc(Cc2ccccc2)s1)c1cccs1	inconclusive: 29.1 µM [cytotoxic, single point]
COc1ccc(S(=O)(=O)Nc2cccc3c2O[C@H](CN(C)Cc2ccc(Cl)c(Cl)c2)[C@@H](C)CN([C@H](C)CO)C3=O)cc1	inactive
O=C(NCC(c1ccco1)N1CCc2ccccc21)c1ccccc1Br (stereo not drawn)	inactive
COc1ccc(C(=O)Nc2ncc(C)s2)cc1S(=O)(=O)N1CCOCC1	inconclusive: 13 µM [cytotoxic, single point]
C=C(C)CNC(=S)NNC(=O)c1ccco1	inactive
Cc1cc(C)n(-c2nc(NCC(C)O)c3c4c(sc3n2)CCCC4)n1 (stereo not drawn)	inconclusive: 20.6 µM [cytotoxic, single point]
COc1cccc2c1C(=O)c1c(O)c3c(c(O)c1C2=O)C[C@@](O)(C(=O)CO)C[C@@H]3O[C@H]1C[C@H](N)[C@H](OC2CCCCO2)[C@H](C)O1 (stereo partly drawn)	inconclusive: 14.6 µM [cytotoxic, partial curve, poor fit]
CS(=O)(=O)N1CCc2cc(-c3csc(NC(=O)Cc4ccccc4)n3)ccc21	inconclusive: 29.1 µM [cytotoxic, single point]
COc1cccc(C(=O)Nc2ccc3oc(-c4cccc5c(Br)cccc45)nc3c2)c1	inactive
CC1(c2cccc3ccccc23)OC(=O)c2ccccc21 (stereo not drawn)	inconclusive: 29.1 µM [cytotoxic, single point]
Cc1cccc(Cn2nc(C(C)(C)C)cc2C(=O)Nc2ccc(F)cc2)c1	inconclusive: 10.3 µM [cytotoxic, partial curve]
CCOC(=O)C1NN=C(C(=O)c2ccccc2)C1c1ccccc1 (stereo not drawn)	inactive

3 compounds already listed, arranged by SMILES length, rising:
Compound	Potency
O=C(NNC(=S)Nc1ccc(Cl)cc1)c1ccccc1OC(F)F	active: 18.4 µM
O=C(NCC(c1ccco1)N1CCc2ccccc21)c1ccccc1Br (stereo not drawn)	inactive
Cc1cc(C)n(-c2nc(NCC(C)O)c3c4c(sc3n2)CCCC4)n1 (stereo not drawn)	inconclusive: 20.6 µM [cytotoxic, single point]

More results follow:

Compound	Potency
CC(=O)Nc1ccc(C=NNC(=O)CCCC(=O)NN=Cc2ccc(NC(C)=O)cc2)cc1	inactive
CCc1ccccc1NC(=O)NC(C)c1ccc2c(c1)OCO2 (stereo not drawn)	inconclusive: 0.259 µM [rising, full curve]
CCOC(=O)c1c(NC(=O)c2ccccc2OCC)sc2c1CCC(CC)C2 (stereo not drawn)	inconclusive: 20.6 µM [rising, partial curve, poor fit]
COc1ccc(C(CNC(=O)c2cccc(S(=O)(=O)N3CCCc4ccccc43)c2)N(C)C)cc1 (stereo not drawn)	inconclusive: 9.2 µM [cytotoxic, partial curve, poor fit]
CCOC(=O)c1sc(=S)n(-c2ccccc2)c1N	inconclusive: 23.1 µM [cytotoxic, single point]
COc1cccc(N2CC(O)=C(c3nc4ccccc4s3)C2=N)c1	active: 7.31 µM
c1ccc(N2CCN(c3nnc(Cc4cccnc4)c4ccccc34)CC2)nc1	inconclusive: 9.2 µM [cytotoxic, partial curve]
C=C1SC(Nc2c(C)cc(C)cc2C)=NC12CCCCC2	inactive
C=CCc1cc(Cl)ccc1OCCCNC(C)CC (stereo not drawn)	inconclusive: 29.1 µM [cytotoxic, partial curve, poor fit]
COc1ccc(/C=C2\C=Cc3ccccc32)cc1	inconclusive: 23.1 µM [rising, partial curve]
C[C@H](O)[C@@H]1C(=O)N2CCc3c([nH]c4ccccc34)[C@@H]2C[C@@H]1N(C)C(=O)NC1CCCCC1	inconclusive: 16.4 µM [cytotoxic, partial curve, poor fit]
Nc1cc(N2CCCCC2)c(Cl)cc1[N+](=O)[O-]	inconclusive: 18.4 µM [cytotoxic, partial curve]
O=C(Nc1ccncc1)c1cc(-c2ccccn2)nc2ccccc12	inconclusive: 1.64 µM [rising, full curve, poor fit]
CC(C)c1ccc(N2C(=O)CSC23C(=O)N(Cc2ccccc2)c2ccccc23)cc1 (stereo not drawn)	inconclusive: 20.6 µM [cytotoxic, single point]
O=C(N/N=C/c1ccco1)c1cc(=O)[nH]c2ccccc12	inconclusive: 0.0326 µM [rising, full curve]
O=C(COC(=O)c1ccc(O)cc1)Nc1ccc2c(c1)OCCO2	inactive
COc1cc(OC)cc(C(=O)Nc2ccc(C(=O)Nc3ccccc3OC)cc2)c1	inconclusive: 29.1 µM [cytotoxic, single point]
CC1=NN(C(N)=S)C(=O)C1N=Nc1c(C)cc(C)cc1C (stereo not drawn)	active: 4.61 µM
N/C(=N\OC(=O)c1ccc([N+](=O)[O-])cc1Cl)c1ccccn1	inconclusive: 29.1 µM [cytotoxic, single point]
Nc1c(C(=O)NCCN2CCOCC2)c2nc3ccccc3nc2n1-c1ccccc1	inactive
O=C(Cc1ccc[nH]c1=O)c1ccc(F)cc1	inactive
